No constants are given. Whether binding was seen depends on the method and setting. Binding seen in cells or lysates may run through a third protein.
Target: T1, ETV7 (UniProt Q9Y603)
T1 sequence: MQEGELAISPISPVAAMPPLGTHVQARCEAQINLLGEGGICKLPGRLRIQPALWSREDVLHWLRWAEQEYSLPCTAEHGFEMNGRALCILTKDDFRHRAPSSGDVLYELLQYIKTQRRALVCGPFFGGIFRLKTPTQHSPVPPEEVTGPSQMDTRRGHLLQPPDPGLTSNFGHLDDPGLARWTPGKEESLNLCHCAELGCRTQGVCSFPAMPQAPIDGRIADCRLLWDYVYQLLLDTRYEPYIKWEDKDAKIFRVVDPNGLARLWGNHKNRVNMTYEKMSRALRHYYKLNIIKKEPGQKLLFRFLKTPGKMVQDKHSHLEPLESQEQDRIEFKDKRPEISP
Test: co-IP; MCF7-Empty/ETV7 or T47D-Empty/ETV7 cells treated with 20 ng/ml IL-6 for 4 h, lysed in CHAPS buffer; incubated overnight with anti-ETV7 antibody (TEL2) or normal mouse IgG bound to protein G Dynabeads; Western blot for phosphorylated STAT3

By UniProt entry, the sequences of proteins in these tests, tags left out.
UniProt P40763: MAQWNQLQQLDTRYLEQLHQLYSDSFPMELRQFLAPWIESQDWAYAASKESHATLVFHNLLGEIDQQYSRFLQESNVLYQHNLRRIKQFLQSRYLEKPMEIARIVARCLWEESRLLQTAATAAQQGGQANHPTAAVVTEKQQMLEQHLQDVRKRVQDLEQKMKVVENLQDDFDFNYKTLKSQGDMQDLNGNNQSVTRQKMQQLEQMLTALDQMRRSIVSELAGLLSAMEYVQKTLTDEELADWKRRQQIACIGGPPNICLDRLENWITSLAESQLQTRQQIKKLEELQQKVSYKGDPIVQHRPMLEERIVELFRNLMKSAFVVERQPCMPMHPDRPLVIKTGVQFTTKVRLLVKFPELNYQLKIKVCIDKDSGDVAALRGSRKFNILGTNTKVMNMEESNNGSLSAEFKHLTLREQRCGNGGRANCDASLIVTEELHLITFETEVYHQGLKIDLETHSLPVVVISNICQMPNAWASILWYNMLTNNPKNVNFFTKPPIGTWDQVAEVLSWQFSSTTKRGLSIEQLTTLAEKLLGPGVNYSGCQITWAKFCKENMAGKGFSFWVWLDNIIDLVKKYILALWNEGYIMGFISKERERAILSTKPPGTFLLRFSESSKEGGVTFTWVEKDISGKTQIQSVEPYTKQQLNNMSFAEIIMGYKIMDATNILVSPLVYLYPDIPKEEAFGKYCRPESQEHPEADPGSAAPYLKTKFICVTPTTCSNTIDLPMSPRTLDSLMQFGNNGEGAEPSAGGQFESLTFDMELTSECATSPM

For “phosphorylated STAT3 (from UniProt P40763 1-770)”, the binding was “no binding”.

Source: publication PMC10089821
